The source of these data is paper PMC5001721.

The chains behind the UniProt entries cited, without tags or fusion partners.
UniProt P9WNM1: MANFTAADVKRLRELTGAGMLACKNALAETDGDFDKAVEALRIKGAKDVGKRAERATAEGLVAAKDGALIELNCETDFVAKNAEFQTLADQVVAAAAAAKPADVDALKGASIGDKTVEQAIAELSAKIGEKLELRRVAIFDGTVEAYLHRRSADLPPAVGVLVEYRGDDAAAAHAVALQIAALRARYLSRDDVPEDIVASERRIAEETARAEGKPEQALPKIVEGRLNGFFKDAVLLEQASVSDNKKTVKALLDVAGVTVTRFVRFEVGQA
UniProt P0CE47: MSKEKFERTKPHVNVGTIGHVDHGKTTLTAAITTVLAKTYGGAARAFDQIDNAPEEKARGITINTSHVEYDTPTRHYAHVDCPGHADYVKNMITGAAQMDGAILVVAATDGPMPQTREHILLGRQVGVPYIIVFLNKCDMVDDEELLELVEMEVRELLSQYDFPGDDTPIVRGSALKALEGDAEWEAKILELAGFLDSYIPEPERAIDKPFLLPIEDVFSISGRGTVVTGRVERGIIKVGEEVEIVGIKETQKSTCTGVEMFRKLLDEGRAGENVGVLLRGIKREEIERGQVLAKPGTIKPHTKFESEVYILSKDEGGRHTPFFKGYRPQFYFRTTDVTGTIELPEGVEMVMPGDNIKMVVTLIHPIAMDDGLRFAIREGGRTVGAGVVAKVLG
UniProt P9WNN1: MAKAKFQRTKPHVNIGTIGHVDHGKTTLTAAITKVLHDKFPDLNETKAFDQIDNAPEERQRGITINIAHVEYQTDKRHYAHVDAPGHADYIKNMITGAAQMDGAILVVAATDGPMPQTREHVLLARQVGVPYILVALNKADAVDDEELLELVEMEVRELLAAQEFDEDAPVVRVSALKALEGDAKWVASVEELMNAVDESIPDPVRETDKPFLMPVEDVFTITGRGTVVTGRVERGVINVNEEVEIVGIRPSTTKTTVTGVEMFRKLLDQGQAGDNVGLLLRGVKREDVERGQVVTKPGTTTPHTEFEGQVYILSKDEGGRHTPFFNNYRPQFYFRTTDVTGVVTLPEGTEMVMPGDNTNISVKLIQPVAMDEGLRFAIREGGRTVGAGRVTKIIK

No constants are given. Whether binding was seen depends on the method and setting. In cells and extracts the contact can be indirect. These calls come from enrichment with a bait or labelling near it, and not all partners need be listed.

In this assay the target is M. tuberculosis elongation factor Ts (EF-Ts) with an N-terminal 6xHis-tag and linker (M. tuberculosis) (UniProt P9WNM1). Briefly: affinity purification with mass spectrometry.

As to “E. coli EF-Tu (from UniProt P0CE47 1-394)”, the binding result is “binds”. On to “M. tuberculosis elongation factor Tu (EF-Tu) (from UniProt P9WNN1 1-396)”, for which the binding entry is given as “binds”.
